Publication PMC9282935
No constants are given. Whether binding was seen depends on the method and setting. In cells and extracts the contact can be indirect. Some results given as binding are weak or reduced against the parent protein; the word gives no strength.

Chains of the proteins cited; added tags and fusions are not shown.
UniProt P09651: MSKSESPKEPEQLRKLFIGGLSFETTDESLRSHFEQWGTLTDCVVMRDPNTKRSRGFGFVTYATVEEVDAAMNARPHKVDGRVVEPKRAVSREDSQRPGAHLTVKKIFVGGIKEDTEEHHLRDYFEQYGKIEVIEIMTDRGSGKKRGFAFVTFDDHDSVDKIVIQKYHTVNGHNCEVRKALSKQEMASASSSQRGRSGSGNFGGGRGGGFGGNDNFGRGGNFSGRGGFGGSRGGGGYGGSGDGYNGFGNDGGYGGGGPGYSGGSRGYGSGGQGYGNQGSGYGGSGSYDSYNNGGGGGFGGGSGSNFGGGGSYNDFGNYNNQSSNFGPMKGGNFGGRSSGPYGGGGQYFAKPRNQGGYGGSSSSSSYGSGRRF
UniProt Q99816: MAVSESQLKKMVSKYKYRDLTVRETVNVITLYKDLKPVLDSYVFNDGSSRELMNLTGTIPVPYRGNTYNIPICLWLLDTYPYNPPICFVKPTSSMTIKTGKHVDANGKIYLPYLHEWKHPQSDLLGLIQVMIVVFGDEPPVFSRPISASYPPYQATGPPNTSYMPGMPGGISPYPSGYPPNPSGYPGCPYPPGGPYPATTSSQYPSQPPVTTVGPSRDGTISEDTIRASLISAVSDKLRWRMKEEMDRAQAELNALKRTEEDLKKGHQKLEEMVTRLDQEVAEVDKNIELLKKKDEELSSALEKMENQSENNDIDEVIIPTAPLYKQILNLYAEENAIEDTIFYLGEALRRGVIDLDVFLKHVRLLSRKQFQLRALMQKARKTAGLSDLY

Target: hnRNPA1^WT (transfected wild-type hnRNPA1) (UniProt P09651)
Assay: co-IP; co-IP of hnRNPA1 (wild type or K113R) and TSG101 in PDAC cells with or without SAE1 overexpression; Western blotting

Substance: tumor susceptibility 101 (TSG101) (from UniProt Q99816 1-390)
- binding: binds
